For this test, the target named is cyclin dependent kinase 9 (Cdk9) (endogenous, neonatal rat ventricular myocytes) (rat) (UniProt Q641Z4). In words: co-immunoprecipitation and Western blot from lysates of rat ventricular myocytes with or without ET-1 for 15 min. For orientation: A western blot detects proteins with antibodies after separation by electrophoresis.

Chains of the proteins cited; added tags and fusions are not shown. Lines headed by an entry give the natural chain unless they say otherwise; changes in a name come on top. A line that says so, or that is headed by a name, gives the form on record, which may keep a tag or linker.
UniProt Q641Z4: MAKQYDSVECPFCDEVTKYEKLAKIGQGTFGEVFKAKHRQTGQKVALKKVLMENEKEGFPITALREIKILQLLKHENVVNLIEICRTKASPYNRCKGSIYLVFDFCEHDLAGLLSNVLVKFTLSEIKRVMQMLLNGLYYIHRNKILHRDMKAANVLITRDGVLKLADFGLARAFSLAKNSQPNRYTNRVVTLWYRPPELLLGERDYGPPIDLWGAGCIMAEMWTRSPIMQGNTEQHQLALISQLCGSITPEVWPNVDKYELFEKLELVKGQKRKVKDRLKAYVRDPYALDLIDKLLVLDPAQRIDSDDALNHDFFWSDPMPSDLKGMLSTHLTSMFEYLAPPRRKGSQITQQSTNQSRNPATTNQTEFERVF
cyclin T1 (endogenous, neonatal rat ventricular myocytes) (A0ABK0LWR1, form named): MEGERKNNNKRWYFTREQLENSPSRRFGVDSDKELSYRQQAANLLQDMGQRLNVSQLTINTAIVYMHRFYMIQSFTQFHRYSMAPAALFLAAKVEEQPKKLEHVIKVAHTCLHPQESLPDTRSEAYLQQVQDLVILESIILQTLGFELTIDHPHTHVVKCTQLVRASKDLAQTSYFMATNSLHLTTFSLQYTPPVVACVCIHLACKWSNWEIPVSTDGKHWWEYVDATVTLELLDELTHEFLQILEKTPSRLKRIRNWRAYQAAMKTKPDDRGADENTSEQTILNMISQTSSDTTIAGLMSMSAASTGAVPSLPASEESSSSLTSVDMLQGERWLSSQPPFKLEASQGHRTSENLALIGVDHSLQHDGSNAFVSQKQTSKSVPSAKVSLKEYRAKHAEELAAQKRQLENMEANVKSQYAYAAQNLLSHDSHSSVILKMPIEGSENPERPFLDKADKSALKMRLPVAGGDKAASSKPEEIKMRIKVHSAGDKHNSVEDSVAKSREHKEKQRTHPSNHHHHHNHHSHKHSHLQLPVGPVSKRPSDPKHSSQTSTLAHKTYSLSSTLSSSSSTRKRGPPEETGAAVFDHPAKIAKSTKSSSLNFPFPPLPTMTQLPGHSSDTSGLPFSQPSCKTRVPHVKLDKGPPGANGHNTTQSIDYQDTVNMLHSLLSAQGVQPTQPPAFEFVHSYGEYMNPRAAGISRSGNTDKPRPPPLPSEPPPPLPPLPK

These are yes or no findings as the source states them, for the method shown. In cells and extracts the contact can be indirect. Some entries that bind do so weakly or less than the wild type.

In the case of “cyclin T1 (endogenous, neonatal rat ventricular myocytes) (from UniProt A0ABK0LWR1 1-724)”, the binding entry is reported as “binds”.

Values taken from US20040106647A1, “Modulators of Cdk9 as a therapeutic target in cardiac hypertrophy” (priority 2002, published 2004).
